PubChem BioAssay AID652259 – Drosophila RNAi Screening Center – 2013
Test: 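Genome-wide hunt for genes that control Wingless pathway activity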 (primary screen). Cells: Drosophila clone 8 imaginal disc epithelial cells. Knock-down reagent: long dsRNA against Drosophila genes. Treatment: pathway stimulated by co-transfected Wingless expression plasmid. Measured: 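Firefly luciferase from a tcf-site Wingless reporter, measured alongside co-transfected Renilla luciferase that tracks transfection; pathway stimulated by a Wingless plasmid; the firefly-to-Renilla ratio is not deposited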. Scale: firefly reporter light: higher = more Wg reporter light, before normalisation; Renilla control light: higher = more transfected or surviving cells. Call rule: 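a knock-down is a candidate when at least two out of four statistical tests show it departing from its plate mean; one test alone signals a weak candidate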. Calls: active = candidate regulator (raises or lowers reporter); inactive = not a candidate.
The screen tested about 22,000 reagents; this is an unselected part of those that have a named target and a result. In the full data, 233 (1.1%) are marked active. 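Light values are raw, unnormalised plate reads; the ratio scores behind the reporter calls were not deposited.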 Names joined by + are all predicted targets of the reagent. Reagent sequences are not shown. Not stated in the record: the amount of reagent, the time to read-out, the dose of the treatment.

Target gene	dsRNA	reporter change call, replicate 1	firefly reporter light, replicate 1	firefly reporter light, replicate 2	Renilla control light, replicate 1	Renilla control light, replicate 2	Outcome
CG3106	DRSC18279		2627	8490	1066	3329	inactive
Kap-alpha1 (karyopherin alpha1)	DRSC11356		24018		5127		inactive
CG14187	DRSC10186		16587		4464		inactive
Pak (p21-activated kinase)	DRSC12602		5146		1616		inactive
chp (chaoptin)	DRSC16925		1952	6028	659	2088	inactive
CG12362	DRSC09884		6164		3497		inactive
CG14238	DRSC14732		8280		2355		inactive
CaMKII (Calcium/calmodulin-dependent protein kinase II)	DRSC17214		2240	7212	960	2330	inactive
CG11099	DRSC06034		9372		3136		inactive
CG1552	DRSC19665		20568		10240		inactive
mod (modulo)	DRSC16999		1728	5175	1008	2123	inactive
Cpsf6 (Cleavage and polyadenylation specific factor 6)	DRSC10781		5241		1533		inactive
lncRNA:iab8 (long non-coding RNA:iab8)	DRSC13187		4423	7.58e5	1643	3.47e5	inactive
lncRNA:iab8 (long non-coding RNA:iab8)	DRSC22252		5.86e5	5.82e5	1.32e5	1.42e5	inactive
CG17167	DRSC20902		17905		12900		inactive
CG17167	DRSC20903		26386		1430		inactive
peb (pebbled)	DRSC18817		30918		9216		inactive
lncRNA:roX2 (long non-coding RNA on the X 2)	DRSC22237		9.05e5	8.74e5	4.08e5	3.81e5	inactive
CG6171	DRSC15982		5657		2408		inactive
Dhrs4 (Dehydrogenase/reductase 4)	DRSC09773		5122		2132		inactive
orb2 + CG43783	DRSC10540		5434		2097		inactive
orb2 + CG43783	DRSC10541		1432	6292	1072	2480	inactive
orb2 + CG43783	DRSC10542		5352		2339		inactive
CG32196	DRSC09548		4136		1636		inactive
Mtpalpha (Mitochondrial trifunctional protein alpha subunit)	DRSC01994		6179		2001		inactive
Dscam3 (Down syndrome cell adhesion molecule 3)	DRSC14525		13168		3400		inactive
Dscam3 (Down syndrome cell adhesion molecule 3)	DRSC16376		14928		4739		inactive
fd102C (forkhead domain 102C)	DRSC17203		27354		18807		inactive
AP-2alpha (Adaptor Protein complex 2, alpha subunit)	DRSC00800		7057	14763	933	2842	inactive
CG14137	DRSC10142		10732		2725		inactive
MRP (Multidrug-Resistance like Protein 1)	DRSC02942		6871		2688		inactive
Mgat2	DRSC16347		2713	5154	1272	2180	inactive
Klp61F (Kinesin-like protein at 61F)	DRSC08671		5569		1202		inactive
AGBE (1,4-Alpha-Glucan Branching Enzyme)	DRSC06861		8938		2421		inactive
axo (axotactin)	DRSC08116		3738		1243		inactive
axo (axotactin)	DRSC08324		1484	12521	620	2840	inactive
axo (axotactin)	DRSC08326		738	6528	288	1221	inactive
axo (axotactin)	DRSC21337		3.44e5	3.78e5	1.94e5	1.35e5	inactive
CG42518 + MED9	DRSC06917		17547		5320		inactive
CenG1A (Centaurin gamma 1A)	DRSC02538		2084	6384	1072	3312	inactive
CenG1A (Centaurin gamma 1A)	DRSC03505		3024	6600	1082	3317	inactive
CenG1A (Centaurin gamma 1A)	DRSC03506		2416	6836	1141	2538	inactive
CG3225	DRSC00578		11458		3864		inactive
Uch-L5 (Ubiquitin carboxy-terminal hydrolase L5)	DRSC11314		4970		1608		inactive
comm2	DRSC09881	Wg reporter activity raised	8104		860		active
comm2	DRSC10877		8304		3805		inactive
TBC1d7 (TBC1 domain family member 7)	DRSC15985		14636		15248		inactive
CG31086 + CG31323	DRSC14902		25528		24475		inactive
Tret1-1 (Trehalose transporter 1-1)	DRSC07046		4416		2283		inactive
Tret1-1 (Trehalose transporter 1-1)	DRSC07048		5056		2129		inactive
CG31176	DRSC15038		30688		4695		inactive
CG31176	DRSC16021		33104		5936		inactive
bcd (bicoid)	DRSC12624		7824		2828		inactive
Ctr1B + Poxm	DRSC16245		12321		3383		inactive
Oseg6 (Outer segment 6)	DRSC06066		5244		1735		inactive
Cyp6a20 (Cytochrome P450 6a20)	DRSC07380		13648		3917		inactive
CG13196	DRSC06321		8313		2455		inactive
CG7214	DRSC03028		16228	5.90e5	7425	1.78e5	inactive
CG7214	DRSC21869		9.76e5	5.68e5	4.17e5	4.02e5	inactive
Sytalpha (Synaptotagmin alpha)	DRSC02869		2528	5776	1019	3436	inactive
CG12576	DRSC20621		31955		9828		inactive
CG17721	DRSC15253		13514		4065		inactive
piwi (P-element induced wimpy testis)	DRSC03592		7290		2469		inactive
Acp26Ab (Accessory gland protein 26Ab)	DRSC01856		4337	8233	1381	3149	inactive
CG31677	DRSC22023		3.75e5	3.86e5	1.51e5	1.97e5	inactive
CG43078	DRSC10292		4160		1362		inactive
CG43078	DRSC10608		4659		2681		inactive
CG43078	DRSC21541		4.09e5	4.84e5	2.23e5	1.58e5	inactive
CG43078	DRSC22327		4.20e5	4.44e5	2.08e5	2.21e5	inactive
gskt (gasket)	DRSC14056		3420		1317		inactive
CG5882	DRSC15907		5173		2336		inactive
CG13460	DRSC10007		5008		2316		inactive
Alg7	DRSC02833		7456		2887		inactive
Alg7	DRSC02834		2179	8027	791	2438	inactive

Reagents above marked active, once more:
Target gene	dsRNA	reporter change call, replicate 1	firefly reporter light, replicate 1	firefly reporter light, replicate 2	Renilla control light, replicate 1	Renilla control light, replicate 2	Outcome
comm2	DRSC09881	Wg reporter activity raised	8104		860		active
